Test [1] has as its target human PD1 expressed on the surface of CHO cells (human) (UniProt Q15116). Description: blocking assay on cells: biotin-labelled human PD-L1 binding to PD1-expressing CHO cells, Europium-streptavidin fluorescence, % inhibition against antibody concentration [B].
For test [2] the target is unchanged. The test is described as follows: blocking assay on cells: biotin-labelled human PD-L2 binding to PD1-expressing CHO cells, Europium-streptavidin fluorescence, % inhibition against antibody concentration [E].

Chains of the proteins cited; added tags and fusions are not shown. Residues count along the entry.
UniProt Q15116, residues 25-288: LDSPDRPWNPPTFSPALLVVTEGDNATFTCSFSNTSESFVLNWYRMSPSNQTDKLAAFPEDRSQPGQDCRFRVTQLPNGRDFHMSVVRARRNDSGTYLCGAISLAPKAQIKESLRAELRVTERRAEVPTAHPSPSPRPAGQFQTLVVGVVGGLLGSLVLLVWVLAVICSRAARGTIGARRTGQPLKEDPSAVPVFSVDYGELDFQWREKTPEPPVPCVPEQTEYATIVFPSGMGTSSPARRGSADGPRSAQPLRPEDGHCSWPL

No constants are given. Whether binding was seen depends on the method and setting. Some binding calls cover weakened binding; strength is not graded here.

B1: PD1-3 (antibody, human IgG4 S228P, kappa, V domains shown)
VH: EVMLVESGGGLVQPGGSLRLSCTASGFTFSKSAMSWVRQAPGKGLEWVAYISGGGGDTYYSSSVKGRFTISRDNAKNSLYLQMNSLRAEDTAVYYCARHSNVNYYAMDYWGQGTLVTVSS
VL: EIVLTQSPATLSLSPGERATMSCRASENIDVSGISFMNWYQQKPGQAPKLLIYVASNQGSGIPARFSGSGSGTDFTLTISRLEPEDFAVYYCQQSKEVPWTFGQGTKLEIKR
notes: Humanized derivative of murine 77E11; the HC is IgG4 (Pro), kappa light chain; also called anti-PD1-3; representative anti-PD1 antibody of the invention
For B1, the binding result in test [1] and in test [2] was “binds” each time.

The values above are taken from patent US20170334995A1 (Boehringer Ingelheim, published 2017).
